Laboratory results taken from patent publication US20160222412A1, “R[…] WITH S[…]-LOOP” (Tocagen Inc., priority 2013, published 2016).
Some results were stated once for a whole list of compounds, not compound by compound.

B1: 6A-406: RRV with yCD2 and minimum IRES, 6As, base 123 to 544 of SEQ ID NO:41 (nucleic acid, listed as Encephalomyocarditis virus)
DNA: GCATTCCTAGGGGTCTTTCCCCTCTCGCCAAAGGAATGCAAGGTCTGTTGAATGTCGTGAAGGAAGCAGTTCCTCTGGAAGCTTCTTGAAGACAAACAACGTCTGTAGCGACCCTTTGCAGGCAGCGGAACCCCCCACCTGGCGACAGGTGCCTCTGCGGCCAAAAGCCACGTGTATAAGATACACCTGCAAAGGCGGCACAACCCCAGTGCCACGTTGTGAGTTGGATAGTTGTGGAAAGAGTCAAATGGCTCTCCTCAAGCGTATTCAACAAGGGGCTGAAGGATGCCCAGAAGGTACCCCATTGTATGGGATCTGATCTGGGGCCTCGGTGCACATGCTTTACATGTGTTTAGTCGAGGTTAAAAANCGTCTAGGCCCCCCGAACCACGGGGACGTGGTTTTCCTTTGAAAAACACGAT
modifications: (492)..(492) “n” can be present or absent, if present n is “A”
B2: 6A-466: RRV with yCD2 and minimum IRES, 6As, base 183 to 544 of SEQ ID NO:41 (nucleic acid, listed as Encephalomyocarditis virus)
DNA: AGGAAGCAGTTCCTCTGGAAGCTTCTTGAAGACAAACAACGTCTGTAGCGACCCTTTGCAGGCAGCGGAACCCCCCACCTGGCGACAGGTGCCTCTGCGGCCAAAAGCCACGTGTATAAGATACACCTGCAAAGGCGGCACAACCCCAGTGCCACGTTGTGAGTTGGATAGTTGTGGAAAGAGTCAAATGGCTCTCCTCAAGCGTATTCAACAAGGGGCTGAAGGATGCCCAGAAGGTACCCCATTGTATGGGATCTGATCTGGGGCCTCGGTGCACATGCTTTACATGTGTTTAGTCGAGGTTAAAAANCGTCTAGGCCCCCCGAACCACGGGGACGTGGTTTTCCTTTGAAAAACACGAT
modifications: (492)..(492) “n” can be present or absent, if present n is “A”

Tested on: U87-MG cells
Test: Vector stability by PCR of the IRES-yCD2 region (one round and serial infection)
Type: cell-based, human
Settings: minimal IRES vectors, serial infection

Row | Molecule | vector stable up to cycles of infection
1 | B1 | at least 10 cycles of infection
2 | B2 | at least 10 cycles of infection
